Patent US20250066425A1, “POLYPEPTIDE AND APPLICATION THEREOF IN PREPARATION OF ANTI-FIBROSIS DRUG” (priority 2022, published 2025)
At least one peptide structure holds a part that was inferred or is arguable (an end, a ring closure or a residue). Residues, ends and D or L forms follow the SMILES beside them.

Experiments:
[1] = system: Smad2/3 signaling pathway; assay: Western blot of Smad2/3 signaling pathway in TGFb-treated NRCF; assay type: cell-based, rat; conditions: 6 uM polypeptide + 10 ng/ml TGFb, 48 h, vs TGFb-only control
[2] = system: mice with myocardial infarction; assay: cardiac fibrosis and cardiac function of mice with myocardial infarction after intramyocardial injection; assay type: in vivo, C57 mice
[3] = system: renal fibrosis modeling mice (unilateral ureteral obstruction); assay: renal fibrosis modeling mice (unilateral ureteral obstruction) after tail vein injection; assay type: in vivo, C57 mice; conditions: 10 mg/kg tail vein every other day x7, 2 weeks, vs control polypeptide
[4] = 1 ug intramyocardial x5, 4 weeks after modeling, vs control polypeptide RKKRRQRRR

## CC(C)[C@H](NC(=O)[C@@H]1CCCN1C(=O)[C@H](Cc1c[nH]cn1)NC(=O)[C@H](CCCCN)NC(=O)[C@H](Cc1ccc(O)cc1)NC(=O)[C@H](CCC(N)=O)NC(=O)[C@H](CCCNC(=N)N)NC(=O)[C@H](CO)NC(=O)[C@H](Cc1c[nH]cn1)NC(=O)[C@H](Cc1ccccc1)NC(=O)[C@H](Cc1ccc(O)cc1)NC(=O)[C@H](CCC(N)=O)NC(=O)CNC(=O)[C@H](CCC(N)=O)NC(=O)[C@H](Cc1ccccc1)NC(=O)[C@H](CCCNC(=N)N)NC(=O)[C@H](CCCNC(=N)N)NC(=O)[C@H](CCCNC(=N)N)NC(=O)[C@H](CCC(N)=O)NC(=O)[C@H](CCCNC(=N)N)NC(=O)[C@H](CCCNC(=N)N)NC(=O)[C@H](CCCCN)NC(=O)[C@H](CCCCN)NC(=O)[C@@H](N)CCCNC(=N)N)C(=O)NCC(=O)N[C@@H](Cc1ccc(O)cc1)C(=O)N[C@@H](CCC(=O)O)C(=O)NCC(=O)N[C@@H](CCCCN)C(=O)O [PAFRK29] (H-RKKRRQRRRFQGQYFHSRQYKHPVGYEGK-OH; N-terminus and C-terminus assumed)
[1]
  p-Smad2/Smad2 ratio: obviously decreased
  p-Smad3/Smad3 ratio: obviously decreased
[2]; [4]
  infarction fibrosis area (representative Sirius Red staining images): smaller infarction fibrosis area
  infarction fibrosis area proportion (Sirius Red statistics): lower infarction fibrosis area proportion and has statistical differences
[2]; 1 ug intramyocardial x5, 4 weeks after myocardial infarction, vs control polypeptide
  left ventricular ejection fraction: higher left ventricular ejection fraction and has statistical differences
[3]
  renal fibrosis area (representative Masson collagen staining images): smaller fibrosis area
  renal fibrosis area proportion (percentage of Masson collagen staining area): lower fibrosis area proportion and has statistical differences
